Experimental data from article PMC3497071.
No constants are given. Whether binding was seen depends on the method and setting. For part of these data: In cells and extracts the contact can be indirect. Some binding calls cover weakened binding; strength is not graded here. Blank lines part the entries; values can stand above or below the binder they belong to.

The chains behind the UniProt entries cited, without tags or fusion partners.
UniProt P05429: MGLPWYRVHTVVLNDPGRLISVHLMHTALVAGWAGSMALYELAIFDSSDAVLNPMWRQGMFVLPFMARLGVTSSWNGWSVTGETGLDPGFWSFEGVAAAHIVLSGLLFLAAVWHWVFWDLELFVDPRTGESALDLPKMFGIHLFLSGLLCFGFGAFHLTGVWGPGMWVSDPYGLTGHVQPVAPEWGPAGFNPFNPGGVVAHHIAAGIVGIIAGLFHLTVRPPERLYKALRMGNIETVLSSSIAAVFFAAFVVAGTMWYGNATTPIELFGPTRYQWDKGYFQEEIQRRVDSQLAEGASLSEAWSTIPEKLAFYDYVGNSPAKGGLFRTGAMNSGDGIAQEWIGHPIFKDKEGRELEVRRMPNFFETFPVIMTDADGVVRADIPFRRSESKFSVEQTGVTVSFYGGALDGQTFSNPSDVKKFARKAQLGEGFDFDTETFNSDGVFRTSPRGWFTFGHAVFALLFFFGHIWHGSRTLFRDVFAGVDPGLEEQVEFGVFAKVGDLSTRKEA

Key:
[1] = target: RC47 assembly complex (PSII core complex lacking CP43), untagged (Synechocystis sp. PCC 6803 (endogenous)) (UniProt P05429); assay: native gel or EMSA; two-dimensional gel: 4-14% CN-PAGE, then 12-20% SDS-PAGE, of solubilized thylakoid membranes (4 µg Chl a) of radiolabelled ΔCP43 cells; Sypro Orange stain, immunoblots, autoradiogram
[2] = target: His-tagged CP47 (CP47 apopolypeptide with a C-terminal His6-tag) (Synechocystis sp. PCC 6803) (UniProt P05429); assay: pull-down; RC47-His isolated by the His6-tag of CP47: Ni2+-affinity chromatography of detergent-solubilized thylakoid membranes of ΔCP43/CP47-His, then DEAE anion exchange (KPN buffer, 0.04% β-DM, MgSO4 gradient 5-200 mM); SDS-PAGE and immunoblots
[3] = target: His-tagged CP47 (CP47 apopolypeptide with a C-terminal His6-tag) (Synechocystis sp. PCC 6803), P05429; assay: as above; details: remark: other sources report otherwise

binding [1]: binds
binding [2]: binds
B1: Psb28 (Sll1398) (protein, UniProt Q55356 1-112)
chain: MAEIQFSKGVAETVVPEVRLSKSKNGQSGMAKFYFLEPTILAKESTDDITGMYLIDDEGEIITREVKGKFINGRPTAIEATVILNSQPEWDRFMRFMERYGAENGLGFSKSE

binding [3]: no binding
B2: PsbO, P10549 29-274 (protein)
chain: VDKSQLTYDDIVNTGLANVCPEISSFTRGTIEVEPNTKYFVSDFCMEPQEYFVKEEPVNKRQKAEYVKGKVLTRQTTSLEQIRGSIAVGADGTLTFKEKDGIDFQPITVLLPGGEEVPFFFTVKNFTGTTEPGFTSINSSTDFVGDFNVPSYRGAGFLDPKARGLYTGYDNAVALPSAADKFRTNKKETPLGKGTLSLQVTQVDGSTGEIAGIFESEQPSDTDLGAKEPLDVKVRGIFYGRVDTDV
